Results from article PMC11442456.
No constants are given. Whether binding was seen depends on the method and setting. Some binding calls cover weakened binding; strength is not graded here. Blank lines part the entries; values can stand above or below the binder they belong to.

What was measured:
[1] = biological target: T1, human lysozyme (commercial, Sigma Aldrich L1667) (human), P61626; assay: cryo-EM structure; helical reconstruction (RELION 4.0) of rigid irreversible fibrils; fibrils from 20 mg/ml lysozyme, 100 mM DTT, 10 mM NaCl, pH 7, 3 h at 85 °C (human) or 90 °C (HEWL), stirring at 300 rpm; both purified; conditions: remark: other sources report otherwise
T1 chain: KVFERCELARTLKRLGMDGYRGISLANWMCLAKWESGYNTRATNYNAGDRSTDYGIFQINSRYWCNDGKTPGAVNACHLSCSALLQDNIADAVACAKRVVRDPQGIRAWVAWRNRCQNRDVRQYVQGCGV

[2] = biological target: T2, recombinant human lysozyme, isotopically labeled (expressed in Pichia pastoris) (human), P61626; assay: solid-state NMR (2D PAIN, ^15N-^13C correlation); reversible fibrils co-fibrillized from a 1:1 mixture of ^15N and ^13C single-labeled human lysozyme (20 mg/ml, pH 7, 10 mM NaCl, 20 mM DTT, 5 min at 80 °C); 850 MHz, MAS 17 kHz, sample at 8 °C; both purified; conditions: remark: other sources report otherwise
T2 chain: T1 chain

binding [1]: binds
B1: human lysozyme (commercial, Sigma Aldrich L1667), P61626 19-148 (enzyme)
chain: T1 chain

binding [2]: binds
B2: recombinant human lysozyme, isotopically labeled (expressed in Pichia pastoris), P61626 19-148 (enzyme)
chain: T1 chain
